Data taken from paper PMC7305295.
Results are given in words; binding and its absence hold for the method and conditions named. In cells and extracts the contact can be indirect. Some results given as binding are weak or reduced against the parent protein; the word gives no strength.

Amino acid sequences for entries named in this document (tags omitted).
UniProt Q9NRC8: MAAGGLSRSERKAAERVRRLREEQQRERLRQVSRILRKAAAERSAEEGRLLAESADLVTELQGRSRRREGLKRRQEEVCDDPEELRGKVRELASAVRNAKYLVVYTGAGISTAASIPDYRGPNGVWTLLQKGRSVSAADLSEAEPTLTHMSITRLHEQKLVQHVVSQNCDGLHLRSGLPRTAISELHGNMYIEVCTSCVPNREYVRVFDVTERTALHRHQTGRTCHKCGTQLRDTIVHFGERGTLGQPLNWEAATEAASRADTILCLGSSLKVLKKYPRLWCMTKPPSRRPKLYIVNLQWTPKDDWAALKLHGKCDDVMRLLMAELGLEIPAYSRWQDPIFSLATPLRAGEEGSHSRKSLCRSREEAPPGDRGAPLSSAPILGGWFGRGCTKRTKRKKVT
UniProt Q13263: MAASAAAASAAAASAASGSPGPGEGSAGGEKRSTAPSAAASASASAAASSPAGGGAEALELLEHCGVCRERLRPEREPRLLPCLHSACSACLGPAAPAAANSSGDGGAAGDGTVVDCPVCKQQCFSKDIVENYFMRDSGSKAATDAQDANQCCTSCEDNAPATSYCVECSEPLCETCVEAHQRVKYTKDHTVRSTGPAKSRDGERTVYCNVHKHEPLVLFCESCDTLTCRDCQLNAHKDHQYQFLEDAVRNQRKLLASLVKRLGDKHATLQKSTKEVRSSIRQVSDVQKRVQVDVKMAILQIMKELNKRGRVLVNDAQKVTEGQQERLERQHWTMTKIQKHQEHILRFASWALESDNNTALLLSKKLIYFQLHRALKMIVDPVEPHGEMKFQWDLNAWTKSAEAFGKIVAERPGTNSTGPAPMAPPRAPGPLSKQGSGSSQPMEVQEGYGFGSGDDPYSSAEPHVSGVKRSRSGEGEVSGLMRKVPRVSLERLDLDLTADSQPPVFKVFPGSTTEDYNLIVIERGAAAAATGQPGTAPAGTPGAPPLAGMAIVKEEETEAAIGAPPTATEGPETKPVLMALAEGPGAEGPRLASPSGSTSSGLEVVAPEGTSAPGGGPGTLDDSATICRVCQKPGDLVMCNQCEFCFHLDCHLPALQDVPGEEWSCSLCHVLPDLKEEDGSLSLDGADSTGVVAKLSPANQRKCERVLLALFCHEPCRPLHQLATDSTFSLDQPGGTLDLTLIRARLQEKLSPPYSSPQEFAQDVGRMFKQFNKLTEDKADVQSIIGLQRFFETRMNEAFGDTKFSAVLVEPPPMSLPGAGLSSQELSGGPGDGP
UniProt Q14739: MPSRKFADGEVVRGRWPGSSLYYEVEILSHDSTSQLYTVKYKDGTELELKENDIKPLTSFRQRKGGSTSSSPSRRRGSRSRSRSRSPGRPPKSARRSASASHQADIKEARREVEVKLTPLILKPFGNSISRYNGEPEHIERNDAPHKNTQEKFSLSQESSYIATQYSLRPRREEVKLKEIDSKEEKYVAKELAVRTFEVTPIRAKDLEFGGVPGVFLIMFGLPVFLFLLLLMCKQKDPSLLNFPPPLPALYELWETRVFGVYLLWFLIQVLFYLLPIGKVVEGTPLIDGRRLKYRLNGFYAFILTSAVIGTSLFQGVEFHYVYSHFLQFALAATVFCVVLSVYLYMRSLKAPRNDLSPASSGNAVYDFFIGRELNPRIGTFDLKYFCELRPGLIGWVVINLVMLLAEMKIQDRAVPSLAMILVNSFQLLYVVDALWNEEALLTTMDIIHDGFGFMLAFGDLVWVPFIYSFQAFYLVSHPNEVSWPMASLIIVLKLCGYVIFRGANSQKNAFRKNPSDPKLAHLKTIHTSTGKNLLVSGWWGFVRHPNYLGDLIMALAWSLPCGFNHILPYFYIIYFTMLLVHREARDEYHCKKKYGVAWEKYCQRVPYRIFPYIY
UniProt P20700: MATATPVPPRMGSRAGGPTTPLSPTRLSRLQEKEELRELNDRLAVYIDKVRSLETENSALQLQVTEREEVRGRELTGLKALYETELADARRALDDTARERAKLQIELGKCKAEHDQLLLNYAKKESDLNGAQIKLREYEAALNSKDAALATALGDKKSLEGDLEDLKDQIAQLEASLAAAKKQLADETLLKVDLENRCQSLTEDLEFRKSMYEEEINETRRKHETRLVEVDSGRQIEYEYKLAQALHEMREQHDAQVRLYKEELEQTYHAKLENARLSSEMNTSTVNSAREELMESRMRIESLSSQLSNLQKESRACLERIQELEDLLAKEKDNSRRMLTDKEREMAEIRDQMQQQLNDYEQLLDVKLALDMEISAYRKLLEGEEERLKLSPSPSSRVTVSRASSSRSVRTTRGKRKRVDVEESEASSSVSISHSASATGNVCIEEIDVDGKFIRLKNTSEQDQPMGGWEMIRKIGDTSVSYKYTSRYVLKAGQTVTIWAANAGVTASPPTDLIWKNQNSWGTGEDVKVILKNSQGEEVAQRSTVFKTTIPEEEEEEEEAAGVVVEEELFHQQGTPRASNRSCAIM
UniProt P45973: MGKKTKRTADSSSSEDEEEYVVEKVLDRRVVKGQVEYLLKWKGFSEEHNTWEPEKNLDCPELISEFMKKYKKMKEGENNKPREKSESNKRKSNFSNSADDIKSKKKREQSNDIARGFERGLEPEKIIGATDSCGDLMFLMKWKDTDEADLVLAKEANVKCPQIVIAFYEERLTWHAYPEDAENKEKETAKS
UniProt Q13185: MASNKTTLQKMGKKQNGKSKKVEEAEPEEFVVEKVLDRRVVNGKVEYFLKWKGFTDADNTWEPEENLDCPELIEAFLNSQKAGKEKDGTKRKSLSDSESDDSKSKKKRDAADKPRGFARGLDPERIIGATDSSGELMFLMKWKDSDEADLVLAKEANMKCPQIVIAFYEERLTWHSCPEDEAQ

Tests used:
[1] = target: Flag-tagged SIRT7 (UniProt Q9NRC8); experiment: co-IP; HEK293T cells transfected with Flag-SIRT7 (Flag-Luc as control); CHAPS lysis buffer (120 mmol/L NaCl, 0.3% CHAPS, 1 mmol/L EDTA, 40 mmol/L HEPES, pH 7.5), 4 °C; partners detected by Western blot
[2] = target: endogenous SIRT7 protein (human (endogenous in hMSCs)) (UniProt Q9NRC8); experiment: co-IP; endogenous SIRT7 immunoprecipitated from WT hMSC lysate (1 mg protein, CHAPS lysis buffer, pre-cleared with Protein A/G-PLUS Agarose beads, antibody and beads overnight at 4 °C); partners detected by Western blot

| Substance | binding [1] | binding [2] |
| --- | --- | --- |
| heterochromatin protein KAP1 (from UniProt Q13263 1-835) | binds | binds |
| nuclear lamina protein LBR (from UniProt Q14739 1-615) | binds | binds |
| Lamin B1 (from UniProt P20700 1-586) | binds | binds |
| heterochromatin protein 1 α (HP1α) (from UniProt P45973 1-191) | binds | binds |
| HP1γ (from UniProt Q13185 1-183) | binds | binds |
